Laboratory results as given in doi:10.1101/2023.09.18.558310.
These are yes or no findings as the source states them, for the method shown. For some of these results: Binding seen in cells or lysates may run through a third protein. Some binding calls cover weakened binding; strength is not graded here. For some of these results: Tags and fused reporters may be left off the sequences shown.

By UniProt entry, the sequences of proteins in these tests, tags left out.
UniProt O04719: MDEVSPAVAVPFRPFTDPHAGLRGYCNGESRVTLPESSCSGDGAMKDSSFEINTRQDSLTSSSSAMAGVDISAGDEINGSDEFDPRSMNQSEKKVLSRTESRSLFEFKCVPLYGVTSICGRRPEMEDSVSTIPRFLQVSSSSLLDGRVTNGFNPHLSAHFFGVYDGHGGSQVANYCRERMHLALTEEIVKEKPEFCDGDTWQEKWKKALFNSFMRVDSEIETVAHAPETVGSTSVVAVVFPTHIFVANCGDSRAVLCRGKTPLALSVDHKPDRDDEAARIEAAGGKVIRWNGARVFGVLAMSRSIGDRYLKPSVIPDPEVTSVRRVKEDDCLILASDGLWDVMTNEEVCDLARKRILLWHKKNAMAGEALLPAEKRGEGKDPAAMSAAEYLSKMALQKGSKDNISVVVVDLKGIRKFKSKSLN

Columns and labels:
[1] = molecular target: T1, FLOT1-mGFP5 (Arabidopsis) (UniProt Q501E6); test: co-IP
T1 sequence: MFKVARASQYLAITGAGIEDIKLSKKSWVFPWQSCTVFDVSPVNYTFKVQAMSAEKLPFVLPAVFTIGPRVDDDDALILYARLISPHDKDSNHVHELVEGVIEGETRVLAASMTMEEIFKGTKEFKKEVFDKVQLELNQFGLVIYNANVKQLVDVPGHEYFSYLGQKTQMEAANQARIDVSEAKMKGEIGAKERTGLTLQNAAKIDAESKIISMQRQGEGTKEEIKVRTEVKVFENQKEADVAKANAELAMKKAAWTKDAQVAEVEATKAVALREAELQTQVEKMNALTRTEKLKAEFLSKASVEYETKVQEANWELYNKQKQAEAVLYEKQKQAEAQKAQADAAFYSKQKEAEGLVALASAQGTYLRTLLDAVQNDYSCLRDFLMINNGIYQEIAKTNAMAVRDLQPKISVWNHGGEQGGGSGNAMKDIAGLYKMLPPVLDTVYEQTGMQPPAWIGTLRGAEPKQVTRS

[2] = molecular target: T2, VAMP724-mGFP5 (Arabidopsis) (UniProt O23429); test: co-IP
T2 sequence: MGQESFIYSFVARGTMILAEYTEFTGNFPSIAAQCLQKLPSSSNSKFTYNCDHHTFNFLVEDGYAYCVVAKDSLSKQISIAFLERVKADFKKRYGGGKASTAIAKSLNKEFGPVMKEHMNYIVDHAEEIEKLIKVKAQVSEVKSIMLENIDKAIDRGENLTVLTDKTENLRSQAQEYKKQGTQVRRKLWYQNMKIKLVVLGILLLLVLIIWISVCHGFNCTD

[3] = molecular target: T3, SnRK2.2-mGFP5 (Arabidopsis) (UniProt Q39192); test: co-IP
T3 sequence: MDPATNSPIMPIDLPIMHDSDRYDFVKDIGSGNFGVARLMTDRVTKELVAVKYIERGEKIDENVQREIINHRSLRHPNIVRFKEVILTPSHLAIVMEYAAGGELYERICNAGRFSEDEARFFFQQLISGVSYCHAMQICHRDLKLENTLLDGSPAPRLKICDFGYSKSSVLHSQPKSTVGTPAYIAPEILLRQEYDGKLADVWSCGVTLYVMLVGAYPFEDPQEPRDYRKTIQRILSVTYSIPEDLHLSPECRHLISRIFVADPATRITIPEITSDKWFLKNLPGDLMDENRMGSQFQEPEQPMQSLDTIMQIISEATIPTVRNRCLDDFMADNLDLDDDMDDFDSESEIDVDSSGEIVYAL

HAB2-mGFP5 (Arabidopsis) = molecular target: T4, HAB2-mGFP5 (Arabidopsis) (UniProt Q9LNP9); test: co-IP
T4 sequence: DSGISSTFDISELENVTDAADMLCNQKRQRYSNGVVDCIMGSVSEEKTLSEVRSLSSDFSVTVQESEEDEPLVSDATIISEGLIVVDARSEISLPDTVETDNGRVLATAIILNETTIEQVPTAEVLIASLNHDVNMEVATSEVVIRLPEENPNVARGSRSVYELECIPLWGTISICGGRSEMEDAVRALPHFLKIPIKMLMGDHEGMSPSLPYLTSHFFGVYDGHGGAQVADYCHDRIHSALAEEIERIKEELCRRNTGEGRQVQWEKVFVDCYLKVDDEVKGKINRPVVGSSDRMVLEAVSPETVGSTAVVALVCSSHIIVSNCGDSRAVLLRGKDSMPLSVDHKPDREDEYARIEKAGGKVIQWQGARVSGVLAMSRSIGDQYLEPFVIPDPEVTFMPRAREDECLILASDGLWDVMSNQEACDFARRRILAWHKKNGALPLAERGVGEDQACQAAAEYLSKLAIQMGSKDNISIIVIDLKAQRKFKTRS

[4] = molecular target: T5, VAMP724 in pCAMBIA1300-NLuc (Arabidopsis) (UniProt O23429); test: split reporter
T5 sequence: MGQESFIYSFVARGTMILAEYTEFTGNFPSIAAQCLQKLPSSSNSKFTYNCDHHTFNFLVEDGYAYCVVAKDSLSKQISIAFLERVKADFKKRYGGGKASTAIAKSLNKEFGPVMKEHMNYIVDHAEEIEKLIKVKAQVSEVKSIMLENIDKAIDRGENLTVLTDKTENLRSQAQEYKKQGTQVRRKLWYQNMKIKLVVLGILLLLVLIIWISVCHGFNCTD

YFPN-FLOT1 (Arabidopsis) = molecular target: T6, YFPN-FLOT1 (Arabidopsis) (UniProt Q501E6); test: split reporter
T6 sequence: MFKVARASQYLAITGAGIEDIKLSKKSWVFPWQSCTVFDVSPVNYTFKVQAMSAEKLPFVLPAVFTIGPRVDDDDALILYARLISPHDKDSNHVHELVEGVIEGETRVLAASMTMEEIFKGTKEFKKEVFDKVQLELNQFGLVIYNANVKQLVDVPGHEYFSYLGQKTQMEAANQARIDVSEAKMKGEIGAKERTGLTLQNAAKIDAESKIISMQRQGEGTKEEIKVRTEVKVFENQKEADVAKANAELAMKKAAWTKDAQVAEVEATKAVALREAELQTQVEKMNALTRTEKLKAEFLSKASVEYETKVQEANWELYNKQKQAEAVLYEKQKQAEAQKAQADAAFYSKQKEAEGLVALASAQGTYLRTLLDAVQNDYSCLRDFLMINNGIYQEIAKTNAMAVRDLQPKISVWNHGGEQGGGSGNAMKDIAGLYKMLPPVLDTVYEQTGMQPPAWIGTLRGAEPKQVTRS

[5] = molecular target: T7, YFPN-VAMP724 (Arabidopsis) (UniProt O23429); test: split reporter
T7 sequence: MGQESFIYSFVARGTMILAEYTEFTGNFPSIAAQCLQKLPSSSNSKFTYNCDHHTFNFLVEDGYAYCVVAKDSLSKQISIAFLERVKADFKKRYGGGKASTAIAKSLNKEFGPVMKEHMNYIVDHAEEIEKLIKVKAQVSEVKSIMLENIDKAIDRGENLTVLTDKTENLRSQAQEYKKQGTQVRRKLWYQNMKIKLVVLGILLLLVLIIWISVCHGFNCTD

[6] = molecular target: T8, YFPN-SnRK2.2 (Arabidopsis) (UniProt Q39192); test: split reporter
T8 sequence: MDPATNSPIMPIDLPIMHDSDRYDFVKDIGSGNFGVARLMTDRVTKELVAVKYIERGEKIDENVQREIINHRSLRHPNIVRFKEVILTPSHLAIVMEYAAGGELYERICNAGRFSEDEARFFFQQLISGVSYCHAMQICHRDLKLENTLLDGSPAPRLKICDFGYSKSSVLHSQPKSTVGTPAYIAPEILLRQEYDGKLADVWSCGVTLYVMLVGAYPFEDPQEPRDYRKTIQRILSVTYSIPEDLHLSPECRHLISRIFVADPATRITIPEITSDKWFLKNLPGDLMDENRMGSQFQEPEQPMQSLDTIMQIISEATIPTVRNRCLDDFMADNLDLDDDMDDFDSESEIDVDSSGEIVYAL

YFPN-HAI2 (Arabidopsis) = molecular target: T9, YFPN-HAI2 (Arabidopsis) (UniProt Q9LNW3); test: split reporter
T9 sequence: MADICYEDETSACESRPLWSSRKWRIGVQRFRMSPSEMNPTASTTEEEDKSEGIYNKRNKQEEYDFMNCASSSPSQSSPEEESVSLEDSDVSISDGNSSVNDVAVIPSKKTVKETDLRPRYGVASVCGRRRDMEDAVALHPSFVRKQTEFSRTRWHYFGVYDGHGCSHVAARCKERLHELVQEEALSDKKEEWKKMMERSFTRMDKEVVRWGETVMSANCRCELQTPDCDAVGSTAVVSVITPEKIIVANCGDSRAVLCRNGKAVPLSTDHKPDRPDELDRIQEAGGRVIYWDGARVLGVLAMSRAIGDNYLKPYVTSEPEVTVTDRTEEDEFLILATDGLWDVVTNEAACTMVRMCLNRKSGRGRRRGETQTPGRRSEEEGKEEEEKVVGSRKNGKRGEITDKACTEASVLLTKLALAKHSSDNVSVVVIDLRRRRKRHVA

YFPN-ABI2 (Arabidopsis) = YFPN-ABI2 (Arabidopsis) (UniProt O04719); test: split reporter
[7] = molecular target: T10, YFPN-SnRK2.3 (Arabidopsis) (UniProt Q39193); test: split reporter
T10 sequence: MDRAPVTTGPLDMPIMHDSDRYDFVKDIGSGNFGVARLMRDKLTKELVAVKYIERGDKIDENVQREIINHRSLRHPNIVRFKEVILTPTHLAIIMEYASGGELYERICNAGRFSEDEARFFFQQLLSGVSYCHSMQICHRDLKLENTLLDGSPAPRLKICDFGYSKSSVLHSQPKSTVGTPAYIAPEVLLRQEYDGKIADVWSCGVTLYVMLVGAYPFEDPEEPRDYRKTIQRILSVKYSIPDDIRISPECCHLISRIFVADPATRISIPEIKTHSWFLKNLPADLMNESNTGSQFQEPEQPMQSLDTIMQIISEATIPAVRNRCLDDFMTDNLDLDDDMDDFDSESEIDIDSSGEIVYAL

HAB2-BD (Arabidopsis) = molecular target: T11, HAB2-BD (Arabidopsis) (UniProt Q9LNP9); test: two-hybrid
T11 sequence: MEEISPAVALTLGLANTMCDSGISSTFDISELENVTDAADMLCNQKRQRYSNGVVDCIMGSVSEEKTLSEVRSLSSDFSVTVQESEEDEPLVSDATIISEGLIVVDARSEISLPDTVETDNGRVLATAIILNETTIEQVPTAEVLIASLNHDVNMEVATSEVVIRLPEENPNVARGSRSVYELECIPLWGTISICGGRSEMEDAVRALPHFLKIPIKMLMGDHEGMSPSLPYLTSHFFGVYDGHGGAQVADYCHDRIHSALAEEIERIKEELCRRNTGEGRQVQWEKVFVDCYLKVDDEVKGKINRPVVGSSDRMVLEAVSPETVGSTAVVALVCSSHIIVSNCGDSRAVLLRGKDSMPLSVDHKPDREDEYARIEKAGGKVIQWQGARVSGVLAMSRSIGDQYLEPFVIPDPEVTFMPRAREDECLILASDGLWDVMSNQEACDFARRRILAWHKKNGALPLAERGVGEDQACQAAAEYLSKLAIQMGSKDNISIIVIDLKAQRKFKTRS

SnRK2.2-BD (Arabidopsis) = molecular target: T12, SnRK2.2-BD (Arabidopsis) (UniProt Q39192); test: two-hybrid
T12 sequence: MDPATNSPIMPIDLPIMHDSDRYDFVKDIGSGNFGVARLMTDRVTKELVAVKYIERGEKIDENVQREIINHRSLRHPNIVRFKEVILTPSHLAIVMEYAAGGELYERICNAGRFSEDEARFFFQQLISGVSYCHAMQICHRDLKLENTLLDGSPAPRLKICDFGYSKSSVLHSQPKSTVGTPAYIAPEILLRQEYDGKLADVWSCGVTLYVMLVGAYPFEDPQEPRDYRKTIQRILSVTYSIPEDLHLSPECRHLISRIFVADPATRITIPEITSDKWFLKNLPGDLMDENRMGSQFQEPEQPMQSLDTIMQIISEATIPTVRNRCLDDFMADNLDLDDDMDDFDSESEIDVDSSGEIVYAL

Measured: binding

B1: CAR1-mCherry (protein, UniProt Q9FHP6 1-168)
chain: MENLVGLLRIHVKRGVNLAIRDISSSDPYIVVHCGKQKLKTRVVKHSVNPEWNDDLTLSVTDPNLPIKLTVYDYDLLSADDKMGEAEFHIGPFIEAIKFAHQLGPGLPNGTIIKKIEPSRKNCLSESSHIVLNQGKIVQNMFLRLQHVECGEVELQLEWIDVPGSRGI
binds: [1] | [2] | [3] | HAB2-mGFP5 (Arabidopsis)

B2: CAR1 in pCAMBIA1300-CLuc (protein, UniProt Q9FHP6 1-168)
chain: MENLVGLLRIHVKRGVNLAIRDISSSDPYIVVHCGKQKLKTRVVKHSVNPEWNDDLTLSVTDPNLPIKLTVYDYDLLSADDKMGEAEFHIGPFIEAIKFAHQLGPGLPNGTIIKKIEPSRKNCLSESSHIVLNQGKIVQNMFLRLQHVECGEVELQLEWIDVPGSRGI
binds: [4]

B3: CAR1-YFPC (protein, UniProt Q9FHP6 1-168)
chain: MENLVGLLRIHVKRGVNLAIRDISSSDPYIVVHCGKQKLKTRVVKHSVNPEWNDDLTLSVTDPNLPIKLTVYDYDLLSADDKMGEAEFHIGPFIEAIKFAHQLGPGLPNGTIIKKIEPSRKNCLSESSHIVLNQGKIVQNMFLRLQHVECGEVELQLEWIDVPGSRGI
binds: YFPN-FLOT1 (Arabidopsis) | [5] | [6] | YFPN-HAI2 (Arabidopsis) | YFPN-ABI2 (Arabidopsis) | [7]

B4: CAR1-AD (protein, UniProt Q9FHP6 1-168)
chain: MENLVGLLRIHVKRGVNLAIRDISSSDPYIVVHCGKQKLKTRVVKHSVNPEWNDDLTLSVTDPNLPIKLTVYDYDLLSADDKMGEAEFHIGPFIEAIKFAHQLGPGLPNGTIIKKIEPSRKNCLSESSHIVLNQGKIVQNMFLRLQHVECGEVELQLEWIDVPGSRGI
binds: HAB2-BD (Arabidopsis) | SnRK2.2-BD (Arabidopsis)
